Reference: publication PMC11733299
No constants are given. Whether binding was seen depends on the method and setting. Some entries that bind do so weakly or less than the wild type.

What was measured:
Assay in all cases: two-hybrid; classical GAL4 system; CNGC N and C termini in pGBK-T7, CPK1 in pGAD-T7; yeast AH109; growth on SD/-Leu-Trp-His-Ade
[1] = biological target: T1, CNGC9-N (aa1-117) in pGBK-T7 (Arabidopsis thaliana) (UniProt Q9M0A4)
T1 sequence: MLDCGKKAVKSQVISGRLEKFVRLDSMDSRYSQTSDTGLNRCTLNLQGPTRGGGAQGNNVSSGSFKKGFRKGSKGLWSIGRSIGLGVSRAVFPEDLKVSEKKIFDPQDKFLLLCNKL

[2] = biological target: T2, CNGC6-C (aa429-747) in pGBK-T7 (Arabidopsis thaliana) (UniProt O82226)
T2 sequence: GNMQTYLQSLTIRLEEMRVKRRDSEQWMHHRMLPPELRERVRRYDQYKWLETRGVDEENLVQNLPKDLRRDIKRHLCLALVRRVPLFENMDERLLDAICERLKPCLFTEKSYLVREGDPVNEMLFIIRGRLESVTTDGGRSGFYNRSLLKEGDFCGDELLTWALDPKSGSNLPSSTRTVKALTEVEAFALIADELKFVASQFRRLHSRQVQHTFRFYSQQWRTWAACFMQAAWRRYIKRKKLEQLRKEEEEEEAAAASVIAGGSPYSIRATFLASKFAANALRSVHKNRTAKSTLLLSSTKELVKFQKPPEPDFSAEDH

[3] = biological target: T3, CNGC6-N (aa1-116) in pGBK-T7 (Arabidopsis thaliana) (UniProt O82226)
T3 sequence: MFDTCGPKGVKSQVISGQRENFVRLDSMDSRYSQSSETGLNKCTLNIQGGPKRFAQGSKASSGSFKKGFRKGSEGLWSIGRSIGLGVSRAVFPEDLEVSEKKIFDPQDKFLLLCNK

[4] = biological target: T4, CNGC5-N (aa1-102) in pGBK-T7 (Arabidopsis thaliana) (UniProt Q8RWS9)
T4 sequence: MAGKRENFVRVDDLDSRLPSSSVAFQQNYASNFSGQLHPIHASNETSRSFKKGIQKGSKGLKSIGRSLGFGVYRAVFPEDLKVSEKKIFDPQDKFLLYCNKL

[5] = biological target: T5, CNGC9-C (aa428-733) in pGBK-T7 (Arabidopsis thaliana) (UniProt Q9M0A4)
T5 sequence: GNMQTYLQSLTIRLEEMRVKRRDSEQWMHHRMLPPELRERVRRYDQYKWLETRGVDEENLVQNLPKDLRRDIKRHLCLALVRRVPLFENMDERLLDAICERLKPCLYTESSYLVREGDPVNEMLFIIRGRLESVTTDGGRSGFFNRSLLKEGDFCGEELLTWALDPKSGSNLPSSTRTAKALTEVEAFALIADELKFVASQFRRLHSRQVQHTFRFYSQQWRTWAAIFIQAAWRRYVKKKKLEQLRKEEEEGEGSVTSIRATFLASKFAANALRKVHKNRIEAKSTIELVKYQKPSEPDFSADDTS

[6] = biological target: T6, CNGC5-C (aa413-717) in pGBK-T7 (Arabidopsis thaliana) (UniProt Q8RWS9)
T6 sequence: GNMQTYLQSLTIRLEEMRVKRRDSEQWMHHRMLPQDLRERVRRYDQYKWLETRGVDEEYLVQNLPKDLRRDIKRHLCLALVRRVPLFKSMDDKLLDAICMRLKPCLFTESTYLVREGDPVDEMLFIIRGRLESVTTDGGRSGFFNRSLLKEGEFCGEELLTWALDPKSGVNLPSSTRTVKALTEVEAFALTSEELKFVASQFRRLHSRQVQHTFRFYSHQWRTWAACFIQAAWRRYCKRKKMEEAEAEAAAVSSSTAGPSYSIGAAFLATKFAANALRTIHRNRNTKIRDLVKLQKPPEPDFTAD

[7] = biological target: T7, CNGC14-N (aa1-101) in pGBK-T7 (Arabidopsis thaliana) (UniProt Q9SJA4)
T7 sequence: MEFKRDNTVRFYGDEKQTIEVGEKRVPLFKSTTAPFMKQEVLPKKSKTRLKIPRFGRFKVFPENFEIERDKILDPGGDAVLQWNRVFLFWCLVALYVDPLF

[8] = substrate: T8, C terminus of CNGC14 (aa411-726) in pGBK-T7 (Arabidopsis thaliana) (UniProt Q9SJA4)
T8 sequence: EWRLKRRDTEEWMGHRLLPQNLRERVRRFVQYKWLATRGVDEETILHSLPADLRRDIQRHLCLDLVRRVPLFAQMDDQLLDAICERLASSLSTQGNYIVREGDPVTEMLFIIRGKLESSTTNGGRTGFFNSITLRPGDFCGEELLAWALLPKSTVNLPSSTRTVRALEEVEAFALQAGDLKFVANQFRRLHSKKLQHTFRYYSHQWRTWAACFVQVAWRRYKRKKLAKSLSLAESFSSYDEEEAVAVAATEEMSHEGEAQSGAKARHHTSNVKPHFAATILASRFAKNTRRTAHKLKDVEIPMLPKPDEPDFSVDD

binding [1]: binds | binding [2]: no binding | binding [3]: binds | binding [4]: binds | binding [5]: no binding | binding [6]: no binding | binding [7]: no binding | binding [8]: no binding
B1: CPK1 in pGAD-T7 (enzyme, UniProt Q06850 1-610)
chain: MGNTCVGPSRNGFLQSVSAAMWRPRDGDDSASMSNGDIASEAVSGELRSRLSDEVQNKPPEQVTMPKPGTDVETKDREIRTESKPETLEEISLESKPETKQETKSETKPESKPDPPAKPKKPKHMKRVSSAGLRTESVLQRKTENFKEFYSLGRKLGQGQFGTTFLCVEKTTGKEFACKSIAKRKLLTDEDVEDVRREIQIMHHLAGHPNVISIKGAYEDVVAVHLVMECCAGGELFDRIIQRGHYTERKAAELTRTIVGVVEACHSLGVMHRDLKPENFLFVSKHEDSLLKTIDFGLSMFFKPDDVFTDVVGSPYYVAPEVLRKRYGPEADVWSAGVIVYILLSGVPPFWAETEQGIFEQVLHGDLDFSSDPWPSISESAKDLVRKMLVRDPKKRLTAHQVLCHPWVQVDGVAPDKPLDSAVLSRMKQFSAMNKFKKMALRVIAESLSEEEIAGLKEMFNMIDADKSGQITFEELKAGLKRVGANLKESEILDLMQAADVDNSGTIDYKEFIAATLHLNKIEREDHLFAAFTYFDKDGSGYITPDELQQACEEFGVEDVRIEELMRDVDQDNDGRIDYNEFVAMMQKGSITGGPVKMGLEKSFSIALKL
